Data on one substance can be found in publication PMC3164132.

Amino acid sequences for entries named in this document (tags omitted).
UniProt Q7TQN4: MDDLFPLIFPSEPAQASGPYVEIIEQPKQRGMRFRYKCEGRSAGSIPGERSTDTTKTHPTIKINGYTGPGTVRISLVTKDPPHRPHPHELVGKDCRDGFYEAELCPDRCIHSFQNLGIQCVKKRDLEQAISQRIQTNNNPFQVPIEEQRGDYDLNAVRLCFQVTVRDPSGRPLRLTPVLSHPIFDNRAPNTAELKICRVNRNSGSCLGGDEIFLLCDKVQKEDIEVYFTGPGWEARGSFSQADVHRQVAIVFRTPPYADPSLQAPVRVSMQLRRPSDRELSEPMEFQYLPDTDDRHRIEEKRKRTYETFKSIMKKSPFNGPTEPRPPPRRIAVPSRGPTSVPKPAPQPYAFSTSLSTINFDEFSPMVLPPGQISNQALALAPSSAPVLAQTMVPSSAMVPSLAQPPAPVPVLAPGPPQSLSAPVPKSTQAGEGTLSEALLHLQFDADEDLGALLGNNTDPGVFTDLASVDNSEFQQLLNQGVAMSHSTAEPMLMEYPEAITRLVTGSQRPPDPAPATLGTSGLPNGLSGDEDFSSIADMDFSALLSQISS
UniProt Q63746: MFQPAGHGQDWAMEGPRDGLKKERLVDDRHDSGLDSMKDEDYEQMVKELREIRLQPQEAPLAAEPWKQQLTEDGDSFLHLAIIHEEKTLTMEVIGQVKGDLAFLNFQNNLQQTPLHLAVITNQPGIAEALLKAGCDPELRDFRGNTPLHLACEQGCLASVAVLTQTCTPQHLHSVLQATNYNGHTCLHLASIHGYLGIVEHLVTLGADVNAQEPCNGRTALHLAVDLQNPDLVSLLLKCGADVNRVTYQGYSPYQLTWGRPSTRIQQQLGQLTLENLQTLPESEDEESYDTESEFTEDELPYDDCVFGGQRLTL

These are yes or no findings as the source states them, for the method shown. In cells and extracts the contact can be indirect. Some entries that bind do so weakly or less than the wild type.

This test addresses NFκB p65 (rat (endogenous in RASMCs)) (UniProt Q7TQN4). Put plainly: co-IP; IP with anti-NFκB p65 (Abcam) from 600 µg RASMC lysate on protein A/G-plus beads, overnight at 4°C, immunoblot for IκBα; Co-IP buffer 120 mM NaCl, 20 mM Tris pH 7.5, 2 mM EDTA, 1% Triton-X100, 1 mM sodium vanadate, 10% glycerol; cells pretreated with GlcN (5 mM), PUGNAc (10^-4 M) or vehicle for 1 hr, then TNF-α (10 ng/mL) or vehicle for 1 hr. A general note: A western blot detects proteins with antibodies after separation by electrophoresis.

With IκBα (from UniProt Q63746 1-314), the binding entry is recorded as “binds”.
